No constants are given. Whether binding was seen depends on the method and setting. In cells and extracts the contact can be indirect. For part of these data: Binding calls can cover weak binding; strength is not graded here. For part of these data: Tags and fused reporters may be left off the sequences shown.

Assay [1] has as its target T1, mouse AIM2-Flag (pcDNA3-mAIM2-Flag) (mouse) (UniProt Q91VJ1).
T1 sequence: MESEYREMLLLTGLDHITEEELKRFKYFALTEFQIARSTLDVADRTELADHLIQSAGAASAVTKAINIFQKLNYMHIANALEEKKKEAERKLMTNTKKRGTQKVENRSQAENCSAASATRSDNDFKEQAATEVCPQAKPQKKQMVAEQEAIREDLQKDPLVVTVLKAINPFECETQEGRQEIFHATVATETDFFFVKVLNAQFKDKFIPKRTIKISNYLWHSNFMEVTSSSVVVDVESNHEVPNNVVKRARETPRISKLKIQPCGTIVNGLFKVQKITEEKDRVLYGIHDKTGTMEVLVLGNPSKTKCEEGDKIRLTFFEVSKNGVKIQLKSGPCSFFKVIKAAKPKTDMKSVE
Nature of the assay: co-IP; HEK-293A cells co-transfected, lysed 24 h later in RIPA buffer (50 mM Tris-HCl pH 7.2, 150 mM NaCl, 1% Triton X-100, 0.1% SDS, Benzonase); Flag-tagged protein precipitated with anti-Flag M2 and protein G Sepharose, washed 6 times with RIPA; HA-tagged MCMV proteins detected by immunoblot. (In general: In western blotting, separated proteins are transferred to a membrane and probed.)

Assay [2] concerns the target T2, mouse IFI203-Flag (pCMV-p203-Myc-DDK) (UniProt O35368).
T2 sequence: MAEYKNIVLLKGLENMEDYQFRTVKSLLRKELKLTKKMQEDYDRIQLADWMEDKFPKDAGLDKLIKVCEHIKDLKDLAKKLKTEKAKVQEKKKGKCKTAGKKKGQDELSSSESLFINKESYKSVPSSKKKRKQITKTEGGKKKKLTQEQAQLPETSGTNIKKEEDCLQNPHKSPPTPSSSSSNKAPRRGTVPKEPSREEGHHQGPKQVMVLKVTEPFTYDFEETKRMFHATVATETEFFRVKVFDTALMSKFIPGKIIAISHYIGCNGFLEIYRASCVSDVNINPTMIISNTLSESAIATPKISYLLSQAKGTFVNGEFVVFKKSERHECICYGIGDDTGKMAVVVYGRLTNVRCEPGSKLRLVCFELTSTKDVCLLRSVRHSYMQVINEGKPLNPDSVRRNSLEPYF
The assay is described as above.

Assay [3] has as its target T3, GFP-tagged mouse ASC pyrin domain (ASC-PYD-GFP) (mouse) (UniProt Q9EPB4).
T3 sequence: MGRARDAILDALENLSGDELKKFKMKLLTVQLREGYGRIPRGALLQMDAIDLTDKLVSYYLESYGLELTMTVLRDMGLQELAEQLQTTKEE
The assay can be described thus: co-IP; HEK-293A cells co-transfected, lysed 24 h later in RIPA buffer with Benzonase; GFP-tagged ASC constructs precipitated with GFP-Trap agarose, washed 6 times with RIPA; HA-tagged M83 or M84 detected by immunoblot.

Assay [4] has as its target C-terminally HA-tagged M84 expressed by recombinant MCMV M84HA (mouse cytomegalovirus (MCMV), Smith strain). Nature of the assay: co-IP; ASC-deficient (Asc knockout) iBMDM infected with MCMV; co-immunoprecipitation with M84 (Supplementary Fig. 4b).
For assay [5] the target is unchanged. The assay can be described thus: co-IP; iBMDM (wild type; also AIM2-deficient iBMDM) infected with MCMV M84HA or M28HA, lysed at 10 hpi in NP-40 buffer; HA-tagged viral protein precipitated with anti-HA affinity matrix (3F10), washes up to 500 mM NaCl; endogenous AIM2 and ASC detected by immunoblot.
Assay [6] deals with HA-tagged M28 expressed by recombinant MCMV M28HA (mouse cytomegalovirus (MCMV), Smith strain). The description is as above.

Take “HA-tagged MCMV M82 protein (expression plasmid in pcDNA3) (mouse cytomegalovirus (MCMV))”: the binding entry in assay [1] is on record as “no binding”.
In the case of “HA-tagged MCMV M83 protein (expression plasmid in pcDNA3) (mouse cytomegalovirus (MCMV))”, the binding entry in assay [1] and in assay [2] was “no binding” throughout.
Regarding “HA-tagged MCMV M84 protein (expression plasmid in pcDNA3) (mouse cytomegalovirus (MCMV))”, the binding entry in assay [3], in assay [1] and in assay [2] was “binds” in each case.

B1: AIM2, endogenous in immortalized bone marrow-derived macrophages (protein, UniProt Q91VJ1 1-354)
chain: T1 sequence
In the case of B1, the binding entry in assay [4] is listed as “no binding (only in ASC-deficient iBMDM)”; in assay [5] it was “binds”; in assay [6] it was “no binding”.
